No constants are given. Whether binding was seen depends on the method and setting. In cells and extracts the contact can be indirect. Some binding calls cover weakened binding; strength is not graded here. Sequences can lack the tags named with a protein. Blank lines part the entries; values can stand above or below the molecule they belong to.
Experiments:
[1] = target: T1, GFP-GST-NLS2 (second nuclear localisation signal of TRIM24 on a GFP-GST fusion protein) (not stated (human or mouse cDNA cloned)); assay: co-IP; GFP-GST-NLS2 and Flag-XPO1 co-expressed in cells; reciprocal immunoprecipitation of GFP-GST-NLS2 (Supplementary Fig. 2D)
T1 sequence: VQPRKKRLKSIEE

Protein sequences, listed by entry. Tags and fused reporters are not part of them.
UniProt O14980: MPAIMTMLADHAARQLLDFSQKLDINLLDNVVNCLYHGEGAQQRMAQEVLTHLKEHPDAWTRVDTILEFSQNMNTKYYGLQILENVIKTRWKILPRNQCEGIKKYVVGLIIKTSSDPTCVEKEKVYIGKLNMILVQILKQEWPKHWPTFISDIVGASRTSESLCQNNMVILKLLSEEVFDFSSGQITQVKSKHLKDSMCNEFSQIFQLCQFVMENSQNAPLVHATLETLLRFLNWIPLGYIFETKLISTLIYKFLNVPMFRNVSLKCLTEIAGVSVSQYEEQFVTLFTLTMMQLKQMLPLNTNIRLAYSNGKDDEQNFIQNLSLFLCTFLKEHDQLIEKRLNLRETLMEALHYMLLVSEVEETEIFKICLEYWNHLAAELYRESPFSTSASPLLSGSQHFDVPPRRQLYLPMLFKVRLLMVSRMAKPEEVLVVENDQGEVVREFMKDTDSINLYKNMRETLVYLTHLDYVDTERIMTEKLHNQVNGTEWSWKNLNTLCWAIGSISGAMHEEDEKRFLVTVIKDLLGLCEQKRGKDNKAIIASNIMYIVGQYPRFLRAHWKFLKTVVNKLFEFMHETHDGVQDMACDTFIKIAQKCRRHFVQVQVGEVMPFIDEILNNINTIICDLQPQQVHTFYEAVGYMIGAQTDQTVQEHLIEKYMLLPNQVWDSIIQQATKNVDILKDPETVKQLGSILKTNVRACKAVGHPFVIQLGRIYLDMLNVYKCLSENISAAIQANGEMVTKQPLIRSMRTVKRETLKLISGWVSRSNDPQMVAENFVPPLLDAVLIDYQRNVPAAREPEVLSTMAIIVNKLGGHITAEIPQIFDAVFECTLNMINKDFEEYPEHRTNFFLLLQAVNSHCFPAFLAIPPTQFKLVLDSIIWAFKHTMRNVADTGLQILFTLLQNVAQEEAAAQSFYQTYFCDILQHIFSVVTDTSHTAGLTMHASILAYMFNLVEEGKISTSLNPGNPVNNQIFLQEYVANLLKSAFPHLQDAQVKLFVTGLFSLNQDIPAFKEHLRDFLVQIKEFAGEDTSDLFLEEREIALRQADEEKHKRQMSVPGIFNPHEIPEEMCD

[2] = target: T2, GFP-TRIM24 fusion protein (tripartite motif-containing 24) (not stated (human or mouse cDNA cloned)) (UniProt O15164); assay: co-IP; GFP-TRIM24 and Flag-XPO1 co-expressed in cells (Supplementary Fig. 2A); which protein was precipitated and the cell type are not given
T2 sequence: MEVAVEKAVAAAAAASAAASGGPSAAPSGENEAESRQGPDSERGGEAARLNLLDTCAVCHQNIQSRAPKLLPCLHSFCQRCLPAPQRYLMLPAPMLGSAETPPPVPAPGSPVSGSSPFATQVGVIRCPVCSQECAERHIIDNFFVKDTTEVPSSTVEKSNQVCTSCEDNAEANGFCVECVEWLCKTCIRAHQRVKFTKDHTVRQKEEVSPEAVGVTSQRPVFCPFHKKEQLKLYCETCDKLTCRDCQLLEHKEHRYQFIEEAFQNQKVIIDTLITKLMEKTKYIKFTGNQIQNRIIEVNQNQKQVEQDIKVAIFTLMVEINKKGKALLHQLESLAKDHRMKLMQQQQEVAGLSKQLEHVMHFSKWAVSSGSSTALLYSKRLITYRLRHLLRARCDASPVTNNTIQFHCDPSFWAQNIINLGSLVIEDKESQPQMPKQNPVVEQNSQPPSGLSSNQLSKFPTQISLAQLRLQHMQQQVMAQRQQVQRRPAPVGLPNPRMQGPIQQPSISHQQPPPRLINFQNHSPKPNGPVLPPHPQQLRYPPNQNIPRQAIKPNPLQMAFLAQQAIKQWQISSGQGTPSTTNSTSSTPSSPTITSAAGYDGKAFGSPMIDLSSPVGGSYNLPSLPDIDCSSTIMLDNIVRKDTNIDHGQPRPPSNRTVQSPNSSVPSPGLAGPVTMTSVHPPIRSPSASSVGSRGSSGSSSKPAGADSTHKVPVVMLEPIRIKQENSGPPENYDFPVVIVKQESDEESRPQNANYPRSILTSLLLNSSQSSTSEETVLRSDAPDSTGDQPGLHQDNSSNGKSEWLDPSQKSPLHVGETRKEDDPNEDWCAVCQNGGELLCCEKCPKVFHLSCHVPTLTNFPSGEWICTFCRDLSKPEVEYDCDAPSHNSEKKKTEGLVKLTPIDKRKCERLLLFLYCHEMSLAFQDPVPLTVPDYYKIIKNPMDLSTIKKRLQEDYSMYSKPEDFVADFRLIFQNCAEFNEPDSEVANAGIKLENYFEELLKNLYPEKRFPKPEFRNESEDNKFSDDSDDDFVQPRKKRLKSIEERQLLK

[3] = target: Flag-tagged exportin-1 (XPO1) (UniProt O14980); assay: co-IP; GFP-GST-NLS2 and Flag-XPO1 co-expressed in cells; immunoprecipitation of Flag-XPO1 (Supplementary Fig. 2C)

- binding [1]: binds
- binding [2]: binds
Molecule: Flag-tagged exportin-1 (XPO1) (from UniProt O14980 1-1071)

- binding [3]: binds
B1: GFP-GST-NLS2 (second nuclear localisation signal of TRIM24 on a GFP-GST fusion protein) (domain or fragment)
chain: VQPRKKRLKSIEE

Source: article PMC9270398
